Data on one substance can be found in article PMC8930229.

The target in this assay is T1, TRAF2 (human (endogenous in THP-1)) (UniProt Q12933).
T1 sequence: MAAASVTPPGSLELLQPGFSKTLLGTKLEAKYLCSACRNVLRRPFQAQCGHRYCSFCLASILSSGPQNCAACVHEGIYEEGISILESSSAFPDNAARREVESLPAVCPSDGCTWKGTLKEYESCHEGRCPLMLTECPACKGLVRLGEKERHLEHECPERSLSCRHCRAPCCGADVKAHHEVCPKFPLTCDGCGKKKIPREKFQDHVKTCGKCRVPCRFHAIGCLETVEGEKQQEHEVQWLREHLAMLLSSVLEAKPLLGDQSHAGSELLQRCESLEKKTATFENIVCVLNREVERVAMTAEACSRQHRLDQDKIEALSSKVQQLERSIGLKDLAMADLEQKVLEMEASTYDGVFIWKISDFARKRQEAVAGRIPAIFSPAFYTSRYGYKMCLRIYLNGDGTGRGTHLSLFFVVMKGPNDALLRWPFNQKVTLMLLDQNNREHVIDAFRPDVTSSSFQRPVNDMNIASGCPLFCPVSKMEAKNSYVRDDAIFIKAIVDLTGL
The assay is described as follows: co-IP; lysates of THP-1 macrophage-derived foam cells; incubated with antibodies plus protein A/G beads overnight, separated by SDS-PAGE; which antibody precipitated and which detected is not told.

These are yes or no findings as the source states them, for the method shown. Binding seen in cells or lysates may run through a third protein. Some results given as binding are weak or reduced against the parent protein; the word gives no strength.

In the case of “Tripartite motif-containing 37 (TRIM37) (from UniProt O94972-1 1-964)”, the binding entry is “binds”.
